Reference: PMC12322490
These are yes or no findings as the source states them, for the method shown. In cells and extracts the contact can be indirect. Some results given as binding are weak or reduced against the parent protein; the word gives no strength.

The chains behind the UniProt entries cited, without tags or fusion partners. Where a name states a change or a piece, a line headed by the entry shows the natural chain unless it says otherwise.
UniProt Q9JKK8: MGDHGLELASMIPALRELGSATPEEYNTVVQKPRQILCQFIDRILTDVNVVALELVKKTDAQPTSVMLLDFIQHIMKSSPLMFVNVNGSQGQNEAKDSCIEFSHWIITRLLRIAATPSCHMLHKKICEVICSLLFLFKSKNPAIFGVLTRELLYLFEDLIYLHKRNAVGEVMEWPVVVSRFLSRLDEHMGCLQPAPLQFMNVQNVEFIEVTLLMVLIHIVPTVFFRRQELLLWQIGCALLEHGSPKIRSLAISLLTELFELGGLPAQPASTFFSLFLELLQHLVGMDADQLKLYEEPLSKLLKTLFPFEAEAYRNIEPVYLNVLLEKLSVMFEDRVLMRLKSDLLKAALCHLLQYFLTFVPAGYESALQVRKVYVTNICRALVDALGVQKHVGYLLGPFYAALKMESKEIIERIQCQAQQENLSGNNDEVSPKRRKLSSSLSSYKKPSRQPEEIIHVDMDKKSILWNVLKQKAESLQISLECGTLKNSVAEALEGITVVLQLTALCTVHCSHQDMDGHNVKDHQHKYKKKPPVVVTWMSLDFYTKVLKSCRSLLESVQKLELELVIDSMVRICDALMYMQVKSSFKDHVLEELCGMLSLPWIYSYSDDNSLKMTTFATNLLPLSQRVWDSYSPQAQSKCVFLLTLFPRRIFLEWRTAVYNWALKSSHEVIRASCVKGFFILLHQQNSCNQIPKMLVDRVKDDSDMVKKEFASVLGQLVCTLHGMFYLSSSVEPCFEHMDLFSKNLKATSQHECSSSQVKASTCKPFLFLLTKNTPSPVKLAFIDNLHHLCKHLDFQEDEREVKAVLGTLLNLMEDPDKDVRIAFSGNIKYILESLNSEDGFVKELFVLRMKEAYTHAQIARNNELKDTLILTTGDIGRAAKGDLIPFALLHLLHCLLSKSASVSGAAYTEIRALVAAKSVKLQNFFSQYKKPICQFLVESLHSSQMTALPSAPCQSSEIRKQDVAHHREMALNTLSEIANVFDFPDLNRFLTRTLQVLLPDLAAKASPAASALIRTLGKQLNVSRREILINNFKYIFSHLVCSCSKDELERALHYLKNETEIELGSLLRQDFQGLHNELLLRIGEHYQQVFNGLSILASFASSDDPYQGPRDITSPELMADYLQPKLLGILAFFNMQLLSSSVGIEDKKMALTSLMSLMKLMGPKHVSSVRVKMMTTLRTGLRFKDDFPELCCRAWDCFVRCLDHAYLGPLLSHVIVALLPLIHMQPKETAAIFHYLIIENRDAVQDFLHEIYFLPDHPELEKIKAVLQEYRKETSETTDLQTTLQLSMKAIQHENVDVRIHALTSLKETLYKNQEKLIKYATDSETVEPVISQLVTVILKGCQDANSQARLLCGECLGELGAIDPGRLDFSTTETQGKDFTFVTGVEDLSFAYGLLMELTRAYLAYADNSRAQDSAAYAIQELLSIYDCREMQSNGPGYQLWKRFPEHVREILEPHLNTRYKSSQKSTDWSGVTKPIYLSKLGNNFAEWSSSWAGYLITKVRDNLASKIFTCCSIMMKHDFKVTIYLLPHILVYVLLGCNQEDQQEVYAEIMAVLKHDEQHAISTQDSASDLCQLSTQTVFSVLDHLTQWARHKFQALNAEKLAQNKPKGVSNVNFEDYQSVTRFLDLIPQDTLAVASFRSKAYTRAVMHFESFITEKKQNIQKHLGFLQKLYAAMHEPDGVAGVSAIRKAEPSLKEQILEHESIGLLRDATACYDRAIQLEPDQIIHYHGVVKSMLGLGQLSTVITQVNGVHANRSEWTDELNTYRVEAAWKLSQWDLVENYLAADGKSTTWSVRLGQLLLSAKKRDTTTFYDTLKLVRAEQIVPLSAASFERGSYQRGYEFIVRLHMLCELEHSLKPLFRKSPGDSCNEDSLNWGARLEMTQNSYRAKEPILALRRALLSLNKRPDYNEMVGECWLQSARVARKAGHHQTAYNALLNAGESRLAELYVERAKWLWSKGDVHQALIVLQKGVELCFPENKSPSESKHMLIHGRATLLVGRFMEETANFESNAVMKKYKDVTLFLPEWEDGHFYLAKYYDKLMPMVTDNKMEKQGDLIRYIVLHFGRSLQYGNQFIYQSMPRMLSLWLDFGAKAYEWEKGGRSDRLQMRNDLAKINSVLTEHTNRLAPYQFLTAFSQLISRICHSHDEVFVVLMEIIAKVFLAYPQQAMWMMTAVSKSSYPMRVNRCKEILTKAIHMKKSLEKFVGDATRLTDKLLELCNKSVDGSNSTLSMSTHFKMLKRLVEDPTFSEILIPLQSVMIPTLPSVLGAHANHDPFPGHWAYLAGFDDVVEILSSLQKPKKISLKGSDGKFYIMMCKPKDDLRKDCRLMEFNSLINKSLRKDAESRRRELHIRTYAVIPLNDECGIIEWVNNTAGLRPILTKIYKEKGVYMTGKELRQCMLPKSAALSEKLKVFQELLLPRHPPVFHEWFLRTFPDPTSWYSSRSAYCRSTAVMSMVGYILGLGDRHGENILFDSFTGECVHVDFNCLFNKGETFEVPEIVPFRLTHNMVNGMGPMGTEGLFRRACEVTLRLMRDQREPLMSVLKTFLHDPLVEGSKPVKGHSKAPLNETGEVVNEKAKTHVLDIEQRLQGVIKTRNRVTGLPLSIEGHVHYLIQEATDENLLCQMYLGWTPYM

T1: autophagy related 13 (mouse (endogenous in primary Schwann cells)) (UniProt Q91YI1)
T1 sequence: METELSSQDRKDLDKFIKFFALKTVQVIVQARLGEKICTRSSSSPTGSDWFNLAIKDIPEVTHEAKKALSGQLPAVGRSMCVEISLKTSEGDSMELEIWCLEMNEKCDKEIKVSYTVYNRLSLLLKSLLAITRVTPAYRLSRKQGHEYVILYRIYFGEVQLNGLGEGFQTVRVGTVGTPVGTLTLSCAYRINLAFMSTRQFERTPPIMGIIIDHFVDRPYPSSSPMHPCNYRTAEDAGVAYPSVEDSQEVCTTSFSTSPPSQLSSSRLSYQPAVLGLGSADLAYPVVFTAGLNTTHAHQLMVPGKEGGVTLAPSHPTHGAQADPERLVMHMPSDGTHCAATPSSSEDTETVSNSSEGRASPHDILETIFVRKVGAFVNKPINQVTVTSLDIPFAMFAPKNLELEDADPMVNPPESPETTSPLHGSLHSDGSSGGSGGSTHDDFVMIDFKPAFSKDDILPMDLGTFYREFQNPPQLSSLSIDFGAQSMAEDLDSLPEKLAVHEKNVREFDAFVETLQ


Key:
[1] = biological target: T1, autophagy related 13 (mouse (endogenous in primary Schwann cells)); assay: co-IP; lysates of NR1-deficient and control primary Schwann cells cultured in glucose starvation medium (SD-G) for 0 and 24 h; immunoprecipitated with anti-ATR and blotted with anti-Atg13, and immunoprecipitated with anti-Atg13 and blotted with anti-ATR
[2] = biological target: ataxia telangiectasia-mutated and Rad3-related protein (mouse (endogenous in primary Schwann cells)) (UniProt Q9JKK8); assay: as above

Row | Molecule | binding [1] | binding [2]
1 | ataxia telangiectasia-mutated and Rad3-related protein (from UniProt Q9JKK8 1-2635) | binds | 
2 | autophagy related 13 (protein, UniProt Q91YI1 1-516) METELSSQDRKDLDKFIKFFALKTVQVIVQARLGEKICTRSSSSPTGSDWFNLAIKDIPEVTHEAKKALSGQLPAVGRSMCVEISLKTSEGDSMELEIWCLEMNEKCDKEIKVSYTVYNRLSLLLKSLLAITRVTPAYRLSRKQGHEYVILYRIYFGEVQLNGLGEGFQTVRVGTVGTPVGTLTLSCAYRINLAFMSTRQFERTPPIMGIIIDHFVDRPYPSSSPMHPCNYRTAEDAGVAYPSVEDSQEVCTTSFSTSPPSQLSSSRLSYQPAVLGLGSADLAYPVVFTAGLNTTHAHQLMVPGKEGGVTLAPSHPTHGAQADPERLVMHMPSDGTHCAATPSSSEDTETVSNSSEGRASPHDILETIFVRKVGAFVNKPINQVTVTSLDIPFAMFAPKNLELEDADPMVNPPESPETTSPLHGSLHSDGSSGGSGGSTHDDFVMIDFKPAFSKDDILPMDLGTFYREFQNPPQLSSLSIDFGAQSMAEDLDSLPEKLAVHEKNVREFDAFVETLQ |  | binds
